In PMC1904233:
No constants are given. Whether binding was seen depends on the method and setting. In cells and extracts the contact can be indirect. Binding can be weak; no strength is given.

Target: myc-tagged Entamoeba replacement Arp2 (Entamoeba histolytica)
Test: co-IP; cleared cell lysates (50 mM Tris pH 8.0, 100 mM NaCl, 1 mM EDTA, 1% Triton X-100, protease inhibitors) incubated with mAb 9E10 anti-myc bound to protein G-sepharose, 1 hr at 4°C, 4 washes; blots probed with antibodies to Dictyostelium Arp2, Arp3 and p21-arc

B1: Dictyostelium p21-arc subunit of the Arp2/3 complex (protein, UniProt O96624 1-174)
chain: MVYHSQFNDESAGFRLVGNVPILPLKTTHKGPAPKGDANSVDIIDEALDLFKANILFRNFEVQGNGDRVLIYLTLYITKCLLKIAPMNKADAEKALFLIAQEQFSIPGESAFPLGGLVTVPNTRDAADTLRQYFTQLRLELGVRLCQRVYAVDPSKANKWWICFSKRKFLNKAL
binding: binds
